Experimental findings from US20220332829A1 are described below.

Results are given in words; binding and its absence hold for the method and conditions named. Binding calls can cover weak binding; strength is not graded here.

For experiment [1], the target named is Cynomolgus B7-H3-His (Sino Biological, Cat. No. 90806-C08H) (cynomolgus monkey). As to the kind of experiment: ELISA, plate coated with cynomolgus B7-H3-His.
Experiment [2] has the same target. The experiment is described as follows: ELISA, plate coated with cynomolgus B7-H3-His, detection with anti-human IgG HRP, OD450.

B1: hu65-13 (antibody, human IgG1, V domains shown)
VH: EVQLVESGGGLVQPGGSLRLSCAASGFTFSDYGIHWVRQAPGKGLEWVSYISSGSNTIYYADTVKGRFTISRDNAKNSLYLQMNSLRAEDTAVYYCATMVTRWFYYAMDYWGQGTTVTVSS
VL: EIVLTQSPATLSLSPGERATLSCSASSSVSYMYWYQQKPGQAPRRLIYDTSKLASGVPARFSGSGSGTDYTLTISSLEPEDFAVYYCQQWSSNPPTFGQGTKLEIK
For the molecule B1, the binding result in experiment [1] was “binds”.

B2: hu51-G34K-12 (antibody, human IgG1, V domains shown)
VH: EVQLVESGGGLVKPGGSLRLSCAASGFTFSSFGMSWVRQAPGKGLEWVATINSGDNYSYSPDSVKGRFTISRDNAKNSLYLQMNSLRAEDTAVYYCARPHIFYYGSPAWFAYWGQGTLVTVSS
VL: DVVMTQSPLSLPVTLGQPASISCRSRQSLVHSNKNTYLHWFQQRPGQSPRLLIYKVSNRFSGVPDRFSGSGSGTDFTLKISRVEAEDVGVYYCSQSTHVPLTFGGGTKVEIK
As for B2, the binding result in experiment [1] and in experiment [2] was “binds” each time.
